For one molecule, binding results are on record in paper PMC4396693, “Structural Basis of Latrophilin-FLRT Interaction” (Structure(London, England:1993), 2015).

These are yes or no findings as the source states them, for the method shown. Where a sequence is shown, tags or fusion partners need not be part of it.

In experiment [1] the target is T1, murine LPHN3^Lec-Olf mutant LPHN3^LF (R292N+R294T), biotinylated at a C-terminal Avi-Tag (murine) (UniProt Q80TS3).
T1 sequence (chain, biotin on the C-terminal Avi-Tag (enzymatic)): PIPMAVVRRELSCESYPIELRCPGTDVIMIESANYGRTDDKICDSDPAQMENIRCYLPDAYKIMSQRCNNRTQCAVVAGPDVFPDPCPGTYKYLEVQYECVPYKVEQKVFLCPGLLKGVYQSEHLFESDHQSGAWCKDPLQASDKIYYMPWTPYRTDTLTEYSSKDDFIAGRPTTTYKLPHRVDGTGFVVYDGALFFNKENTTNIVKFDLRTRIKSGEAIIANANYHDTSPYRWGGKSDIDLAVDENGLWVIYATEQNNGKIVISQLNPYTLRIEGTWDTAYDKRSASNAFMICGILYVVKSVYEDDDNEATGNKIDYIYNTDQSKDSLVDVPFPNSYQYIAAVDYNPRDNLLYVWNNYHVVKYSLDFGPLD
As to the kind of experiment: SPR; biotinylated wild-type or mutant LPHN3^Lec-Olf on streptavidin-coated Biacore chips, FLRT2 ectodomain injected as analyte; equilibrium, 25°C, PBS pH 7.5, 0.005% polysorbate 20; 1:1 model; both purified.

For experiment [2], the target named is T2, murine LPHN3^Lec-Olf mutant LPHN3^LF(2) (R324N+G326T), biotinylated at a C-terminal Avi-Tag (murine) (UniProt Q80TS3).
T2 sequence (chain, biotin on the C-terminal Avi-Tag (enzymatic)): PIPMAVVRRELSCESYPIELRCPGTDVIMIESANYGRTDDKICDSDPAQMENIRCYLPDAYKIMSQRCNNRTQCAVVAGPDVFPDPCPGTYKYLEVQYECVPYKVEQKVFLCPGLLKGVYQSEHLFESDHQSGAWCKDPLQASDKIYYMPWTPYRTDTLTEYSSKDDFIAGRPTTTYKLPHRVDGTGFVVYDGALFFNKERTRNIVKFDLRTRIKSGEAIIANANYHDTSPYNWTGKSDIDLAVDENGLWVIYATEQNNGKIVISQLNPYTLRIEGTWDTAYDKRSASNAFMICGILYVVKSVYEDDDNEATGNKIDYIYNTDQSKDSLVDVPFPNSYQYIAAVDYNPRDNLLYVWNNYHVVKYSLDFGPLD
The experiment is described as above.

B1: murine FLRT2 full ectodomain, wild type (residues 35-540) (domain or fragment)
chain: ACPSVCRCDRNFVYCNERSLTSVPLGIPEGVTVLYLHNNQINNAGFPAELHNVQSVHTVYLYGNQLDEFPMNLPKNVRVLHLQENNIQTISRAALAQLLKLEELHLDDNSISTVGVEDGAFREAISLKLLFLSKNHLSSVPVGLPVDLQELRVDENRIAVISDMAFQNLTSLERLIVDGNLLTNKGIAEGTFSHLTKLKEFSIVRNSLSHPPPDLPGTHLIRLYLQDNQINHIPLTAFANLRKLERLDISNNQLRMLTQGVFDHLSNLKQLTARNNPWFCDCSIKWVTEWLKYIPSSLNVRGFMCQGPEQVRGMAVRELNMNLLSCPTTTPGLPVFTPAPSTVSPTTQSPTLSVPSPSRGSVPPAPTPSKLPTIPDWDGRERVTPPISERIQLSIHFVNDTSIQVSWLSLFTVMAYKLTWVKMGHSLVGGIVQERIVSGEKQHLSLVNLEPRSTYRICLVPLDAFNYRTVEDTICSEATTHASYLNNGSNTASSHEQTTSHSMGSP
With B1, the binding result in experiment [1] and in experiment [2] was “no binding” throughout.
